In all, about 320,000 compounds went through this assay and about 22,000 (6.9%) were called active. Inconclusive results, whose numbers are uncertain, are shown with a selection of clear calls. Calls come from the whole dose curve; as a rule, active = well fitted inhibition curve with a large enough effect; inconclusive = small, poorly fitted or top-dose-only effect, or another doubt; inactive = no such curve, though single readings can be large or run the other way. Where the call is inconclusive, the potency comes from a doubtful curve fit.
Test: Primary qHTS for delayed death inhibitors of the malarial parasite plastid, 96 hour incubation
Settings: P. falciparum luciferase reporter growth; series mostly up to 28.7 µM; activity change, negative = inhibition: at the top concentration
Summary of the method: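 Luminescence readout: decreased luciferase signal marks inhibited growth of reporter-expressing P. falciparum in infected red cells (2% hematocrit, 0.05% parasitemia final), exposed to compound two generations (96 h, 37 C, 5% CO2).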
% is set by controls: 0 for no effect and ±100 for the full control effect; potency is the fitted concentration of half-maximal effect.

| SMILES | Potency | activity change, negative = inhibition |
| --- | --- | --- |
| CCCc1cc(C(=O)NNC(=S)NC(C)c2ccccc2)cs1 (stereo not drawn) | inconclusive: 18.5 µM [inhibitor, single point] |  |
| O=[N+]([O-])c1ccc(/C=N/Nc2nc(N3CCCCC3)nc(N3CCCCC3)n2)cc1 |  | inactive: 4.16% |
| c1ccc(SCCCCN2CCOCC2)cc1 | inconclusive: 18.5 µM [inhibitor, single point] |  |
| CCOc1ccc(CN2CCN(Cc3[nH]c4ccc(OC)cc4c3C)CC2CCO)cc1 (stereo not drawn) | inconclusive: 4.15 µM [inhibitor, partial curve] |  |
| COc1ccccc1CNC(=O)c1ccccc1OC | inconclusive: 13.1 µM [inhibitor, single point] |  |
| CCN1C(=O)C(CC(=O)Nc2ccc(F)cc2)N(Cc2ccc3c(c2)OCO3)C1=S (stereo not drawn) | inconclusive: 9.28 µM [inhibitor, partial curve] |  |
| O=C(NCCCO)c1ccc(CSc2nc3ccccc3[nH]2)cc1 |  | inactive: 1.79% |
| Cc1cccc(C)c1NC(=O)CN(C)C(=O)c1ccccc1OCc1ccc(F)cc1 |  | inactive: -0.876% |
| c1cc(-c2noc(CCC3CCCC3)n2)ccn1 | inconclusive: 9.28 µM [inhibitor, single point] |  |
| Cc1csc2ncc(C(=O)NCCc3ccccc3)c(=O)n12 |  | inactive: 117% |
| Cc1ccc(C2c3[nH]c4ccccc4c3C[C@H]3C(=O)N(c4ccccc4C(=O)NCCN4CCOCC4)C(=O)N23)cc1 (stereo partly drawn) | inconclusive: 4.15 µM [inhibitor, partial curve, poor fit] |  |
| CCc1ccc(NC(=O)C2CCN(S(=O)(=O)c3ccc4c(c3)NC(=O)CO4)CC2)cc1 | inconclusive: 18.5 µM [inhibitor, single point] |  |
| Oc1c(Br)cc(/C=N/Nc2ccc(Cl)nn2)cc1Br | active: 1.04 µM |  |
| Cc1ccc(NNC(N)=S)cc1Cl |  | inactive: 43.9% |
| Cc1ccc(S(=O)(=O)NCC(=O)OCc2nnc(-c3ccccc3)o2)cc1 |  | inactive: 29% |
| CC1CCN(S(=O)(=O)c2ccc3[nH]cc(C(=O)NCCN4CCOCC4)c(=O)c3c2)CC1 | inconclusive: 1.85 µM [inhibitor, single point] |  |
| CC(OC(=O)c1ccc([N+](=O)[O-])s1)C(=O)NC1CCCCC1C (stereo not drawn) | inconclusive: 9.28 µM [inhibitor, partial curve, poor fit] |  |
| Cc1cc(C)cc(NC(=O)CN2CCN(c3ccccc3)CC2)c1 |  | inactive: 27.1% |
| Cc1cc(C(=O)O)ccc1NCc1ccncc1 | inconclusive: 9.28 µM [inhibitor, partial curve, poor fit] |  |
| CCOC(=O)c1[nH]c2ccc(OC)cc2c1NC(=O)CN1CCN(c2ccccn2)CC1 |  | inactive: -18.8% |
| COCCCNC(=O)c1ccc([N+](=O)[O-])c(Cl)c1 | inconclusive: 16.5 µM [inhibitor, single point] |  |
| CCOC(=O)CCCNC(=O)CN1C(=O)NC2(CCCCCC2)C1=O | inconclusive: 18.5 µM [inhibitor, single point] |  |
| Cc1ccc(CNC(=O)Cc2ccc(-n3c(=O)[nH]c4ccsc4c3=O)cc2)cc1 | inconclusive: 0.657 µM [inhibitor, partial curve, poor fit] |  |
| CCN(CC(=O)Nc1ccc(NC(C)=O)cc1)C(=O)C1(c2ccccc2)CC1 |  | inactive: -14.1% |

| SMILES | Potency | activity change, negative = inhibition |
| --- | --- | --- |
| O=[N+]([O-])c1ccc(C2CCCC/C2=N/OCc2ccc(F)cc2)c([N+](=O)[O-])c1 (stereo not drawn) | inconclusive: 9.28 µM [inhibitor, partial curve] |  |
| COC(=O)c1ccc(OC(=O)c2ccccc2F)cc1 | inconclusive: 13.1 µM [inhibitor, single point] |  |
| Cc1cc(CNC(=O)COc2ccc(F)cc2Cl)cc(C)c1O |  | inactive: -14.2% |
| CCCOc1cccc(C2C(C(=O)c3ccco3)=C(O)C(=O)N2c2nnc(C)s2)c1 (stereo not drawn) |  | inactive: -1.91% |
| COc1cc2c(cc1OC)C(c1cccc(Cl)c1)CC(=O)N2 (stereo not drawn) | inconclusive: 0.165 µM [inhibitor, full curve, poor fit] |  |
| COc1ccc(C(=O)Nc2nncs2)cc1S(=O)(=O)N1CC(c2ccccc2)CC1=O (stereo not drawn) | inconclusive: 9.28 µM [inhibitor, partial curve] |  |
| CC(C)N(CCc1ccncc1)C(=O)Nc1ccc(Cl)c(Cl)c1 | inconclusive: 10.4 µM [inhibitor, single point] |  |
| O=S1(=O)CCN2C(c3cccc4ccccc34)=CSC2=N1 |  | inactive: -47.1% [at 5.75 µM] |
| C=CCOC(=O)C1C(=O)CC(C)(O)C(C(=O)OCC=C)C1c1ccc(N(C)C)cc1 (stereo not drawn) | inconclusive: 18.5 µM [inhibitor, single point] |  |
| CCN(CC1CCCN(CCc2cccc(F)c2)C1)C(=O)c1cc(C)oc1C (stereo not drawn) | active: 5.22 µM |  |
| CCOc1cccc(C(=O)Nc2cccc(C(C)=O)c2)c1 | active: 3.29 µM |  |
| COc1cccc(OC)c1C(=O)Nc1sc2c(c1C(N)=O)CCN(Cc1ccccc1)C2 | inconclusive: 10.4 µM [inhibitor, single point] |  |
| CCOC(=O)c1sc(=S)n(-c2ccccc2Cl)c1SC | active: 2.62 µM |  |
| O=C(Nc1ccccc1Cl)c1ccc(S(=O)(=O)NCC2CCCO2)cc1 (stereo not drawn) | inconclusive: 8.28 µM [inhibitor, partial curve] |  |
| CC(=O)N1CCN(C(=O)c2ccc(Oc3ccccc3)cc2)CC1 | inconclusive: 14.7 µM [inhibitor, partial curve, poor fit] |  |
| CCCOc1ccc2nc(NC(=O)OC)sc2c1 |  | inactive: -16.2% |
| O=C(NC(=S)Nc1ccc(NC(=O)c2cccs2)cc1)c1cc2ccccc2o1 |  | inactive: 67.6% |
| COc1ccc(CN(C)CC(=O)N(C)CC(=O)Nc2ccccc2Br)cc1F |  | inactive: -15.8% |
| O=[N+]([O-])c1cc(/C=N/O)ccc1Oc1ccccc1Cl |  | inactive: -9.01% |
| O=C(Nc1ccc(F)cc1F)NC1CCCc2ccccc21 (stereo not drawn) |  | inactive: 7.65% |
| CCCn1c(SCC(=O)Nc2cc(S(=O)(=O)N3CCCCC3)ccc2C)n[nH]c1=O | inconclusive: 10.4 µM [inhibitor, partial curve, poor fit] |  |
| CCCNC(=O)COc1coc(CN2CCN(c3ccccc3F)CC2)cc1=O |  | inactive: -9.05% |
| COc1cccc(CC(=O)N[C@@H](CCSC)c2nc3ccccc3[nH]2)c1 |  | inactive: -2.22% |
| O=C(NC1CCSc2ccccc21)c1ccc(C(F)(F)F)cc1 (stereo not drawn) | inconclusive: 14.7 µM [inhibitor, single point] |  |

Compounds from the list above that contain bromine (2):

| SMILES | Potency | activity change, negative = inhibition |
| --- | --- | --- |
| Oc1c(Br)cc(/C=N/Nc2ccc(Cl)nn2)cc1Br | active: 1.04 µM |  |
| COc1ccc(CN(C)CC(=O)N(C)CC(=O)Nc2ccccc2Br)cc1F |  | inactive: -15.8% |

Reference: PubChem BioAssay AID504834 (National Center for Advancing Translational Sciences (NCATS), 2011)
